PubChem BioAssay AID1159617 – Peter MacCallum Cancer Centre | 2016
Shown is an unselected part of 153 reagents tested. 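Values are robust z-scores scaled across the full screen; higher values mean larger or longer cells.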 Not all columns of the deposit are shown. Not given: the time to read-out.

- Assay: 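Size and shape changes after knock-down in blood and lymph vessel endothelial cells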 (tertiary re-screen of migration hits)
- System: human HMBEC blood microvascular and HDLEC lymphatic endothelial cells
- Reagent: siRNA pool against human genes, 40 nM
- Read-out: 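Actin stained with phalloidin and imaged; area and length measured per cell, averaged across replicates and expressed as robust z-scores over the whole screen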
- Scale: cell area z-score, HMBEC and cell area z-score, HDLEC: higher = larger cells

Knock-down of TTLL3 (tubulin tyrosine ligase like 3) [SID313053994] resulted in: cell area z-score, HMBEC -0.07; cell area z-score, HDLEC -0.37. CCS (copper chaperone for superoxide dismutase) [SID313053974] scored cell area z-score, HMBEC -0.27; cell area z-score, HDLEC -0.15. PLB1 (phospholipase B1) [SID313054039] gave cell area z-score, HMBEC 1.03; cell area z-score, HDLEC 1.4. For FLG2 (filaggrin 2) [SID313054051], the entry reads cell area z-score, HMBEC 1.79; cell area z-score, HDLEC 1.98. Against TMEM121B (transmembrane protein 121B) [SID313053997], the values are cell area z-score, HMBEC 0.24; cell area z-score, HDLEC 1.19. ELP2 (elongator acetyltransferase complex subunit 2) [SID313054008] scored cell area z-score, HMBEC -0.3; cell area z-score, HDLEC -0.62.

Against LIMK1 (LIM domain kinase 1) [SID313053937], the entry reads cell area z-score, HMBEC -1.24; cell area z-score, HDLEC -0.53. Against RNASE7 (ribonuclease A family member 7) [SID313054025], the values are cell area z-score, HMBEC -0.14; cell area z-score, HDLEC 0.04. Against NFKBIZ (NFKB inhibitor zeta) [SID313054015] the deposit lists cell area z-score, HMBEC -0.76; cell area z-score, HDLEC -0.73. SETD2 (SET domain containing 2, histone lysine methyltransferase) [SID313053998] scored cell area z-score, HMBEC 1.12; cell area z-score, HDLEC 2.11. For RTKN (rhotekin) [SID313053953], the entry reads cell area z-score, HMBEC 0.03; cell area z-score, HDLEC 0.07. For ATM (ATM serine/threonine kinase) [SID313053907] the deposit lists cell area z-score, HMBEC -1.3; cell area z-score, HDLEC -0.03.

With knock-down of LGALS1 (galectin 1) [SID313053936], the screen gave cell area z-score, HMBEC 0.46; cell area z-score, HDLEC 0.29. ITFG2 (integrin alpha FG-GAP repeat containing 2) [SID313054010] showed cell area z-score, HMBEC 0.06; cell area z-score, HDLEC 0.92. TNFRSF1B (TNF receptor superfamily member 1B) [SID313053958] gave cell area z-score, HMBEC -0.02; cell area z-score, HDLEC 1.55. Against MIEF1 (mitochondrial elongation factor 1) [SID313054003], the values are cell area z-score, HMBEC -0.08; cell area z-score, HDLEC -0.33. After knock-down of SLC22A25 [SID313054050], the record shows cell area z-score, HMBEC 0.31; cell area z-score, HDLEC -0.35. Silencing of KCNQ2 (potassium voltage-gated channel subfamily Q member 2) [SID313053935] came out at: cell area z-score, HMBEC -1.08; cell area z-score, HDLEC -0.08.

PRR21 (proline rich 21) [SID318171902] gave cell area z-score, HMBEC -1.69; cell area z-score, HDLEC -1.89. Against CMTM8 (CKLF like MARVEL transmembrane domain containing 8) [SID313054042], the entry reads cell area z-score, HMBEC 0.55; cell area z-score, HDLEC -1.17. Silencing of TPST2 (tyrosylprotein sulfotransferase 2) [SID313053961] came out at: cell area z-score, HMBEC 1.71; cell area z-score, HDLEC 0.5. CNKSR1 (connector enhancer of kinase suppressor of Ras 1) [SID313053976] scored cell area z-score, HMBEC 0.54; cell area z-score, HDLEC 0.6. After knock-down of OR10H4 (olfactory receptor family 10 subfamily H member 4) [SID313054033], the record shows cell area z-score, HMBEC -0.4; cell area z-score, HDLEC -1.12. RAD21 (RAD21 cohesin complex component) [SID313053951] gave cell area z-score, HMBEC -0.3; cell area z-score, HDLEC -0.65.

Depletion of ATRAID (all-trans retinoic acid induced differentiation factor) [SID313054001] came out at: cell area z-score, HMBEC -0.34; cell area z-score, HDLEC 1.38. After knock-down of SPICE1 (spindle and centriole associated protein 1) [SID313054041], the screen gave cell area z-score, HMBEC 0.54; cell area z-score, HDLEC 0.54. After knock-down of GNAS (GNAS complex locus) [SID313053930] the results were cell area z-score, HMBEC 0.25; cell area z-score, HDLEC -0.5. After knock-down of STRC (stereocilin) [SID313054044], the screen gave cell area z-score, HMBEC 0.04; cell area z-score, HDLEC 0.62. After knock-down of COPB2 (coat protein complex I subunit beta 2) [SID313053969] the results were cell area z-score, HMBEC 0.81; cell area z-score, HDLEC -0.1. After knock-down of MOB3A (MOB kinase activator 3A) [SID313054032], the record shows cell area z-score, HMBEC 0.4; cell area z-score, HDLEC 1.08.

DOT1L (DOT1 like histone lysine methyltransferase) [SID313054024] scored cell area z-score, HMBEC -0.14; cell area z-score, HDLEC 0.08. Knock-down of NUDT2 (nudix hydrolase 2) [SID313053905] resulted in: cell area z-score, HMBEC -0.45; cell area z-score, HDLEC -0.71. Knock-down of GCGR (glucagon receptor) [SID313053928] came out at: cell area z-score, HMBEC 1.15; cell area z-score, HDLEC 0.26. AKR1C6P (aldo-keto reductase family 1 member C6, pseudogene) [SID313054052] showed cell area z-score, HMBEC -0.75; cell area z-score, HDLEC -0.87. Silencing of PPP6R1 (protein phosphatase 6 regulatory subunit 1) [SID313053984] came out at: cell area z-score, HMBEC 0.26; cell area z-score, HDLEC -0.52. Depletion of SYNGAP1 (synaptic Ras GTPase activating protein 1) [SID313053967] resulted in: cell area z-score, HMBEC -1.29; cell area z-score, HDLEC -1.73.
